Data reported in article PMC11989279.

By UniProt entry, the sequences of proteins in these tests, tags left out. Where a name states a change or a piece, a line headed by the entry shows the natural chain unless it says otherwise.
UniProt P63010: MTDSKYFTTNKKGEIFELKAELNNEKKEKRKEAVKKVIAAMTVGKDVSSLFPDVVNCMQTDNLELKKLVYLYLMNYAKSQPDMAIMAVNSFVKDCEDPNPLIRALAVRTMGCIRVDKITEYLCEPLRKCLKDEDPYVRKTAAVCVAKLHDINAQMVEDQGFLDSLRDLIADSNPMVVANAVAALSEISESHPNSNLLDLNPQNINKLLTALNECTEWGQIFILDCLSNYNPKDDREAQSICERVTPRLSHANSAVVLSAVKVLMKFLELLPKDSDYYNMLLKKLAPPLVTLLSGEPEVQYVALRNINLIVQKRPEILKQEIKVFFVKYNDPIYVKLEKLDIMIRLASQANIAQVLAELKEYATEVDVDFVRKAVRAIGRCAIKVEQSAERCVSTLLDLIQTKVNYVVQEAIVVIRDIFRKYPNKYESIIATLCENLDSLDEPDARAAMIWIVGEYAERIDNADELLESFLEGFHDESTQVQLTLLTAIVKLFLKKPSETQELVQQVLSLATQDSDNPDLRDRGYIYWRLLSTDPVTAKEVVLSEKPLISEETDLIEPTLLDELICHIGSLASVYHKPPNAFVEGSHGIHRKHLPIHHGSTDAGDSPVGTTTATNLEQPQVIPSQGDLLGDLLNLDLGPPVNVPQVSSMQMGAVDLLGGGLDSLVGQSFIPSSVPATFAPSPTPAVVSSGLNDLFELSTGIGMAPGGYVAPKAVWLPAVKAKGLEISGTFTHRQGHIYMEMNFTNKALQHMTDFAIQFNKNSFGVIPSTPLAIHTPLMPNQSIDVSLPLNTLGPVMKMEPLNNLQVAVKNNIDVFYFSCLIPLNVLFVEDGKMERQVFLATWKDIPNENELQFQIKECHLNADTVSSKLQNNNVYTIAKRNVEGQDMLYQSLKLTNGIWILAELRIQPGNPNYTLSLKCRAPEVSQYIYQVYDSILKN
UniProt P25098: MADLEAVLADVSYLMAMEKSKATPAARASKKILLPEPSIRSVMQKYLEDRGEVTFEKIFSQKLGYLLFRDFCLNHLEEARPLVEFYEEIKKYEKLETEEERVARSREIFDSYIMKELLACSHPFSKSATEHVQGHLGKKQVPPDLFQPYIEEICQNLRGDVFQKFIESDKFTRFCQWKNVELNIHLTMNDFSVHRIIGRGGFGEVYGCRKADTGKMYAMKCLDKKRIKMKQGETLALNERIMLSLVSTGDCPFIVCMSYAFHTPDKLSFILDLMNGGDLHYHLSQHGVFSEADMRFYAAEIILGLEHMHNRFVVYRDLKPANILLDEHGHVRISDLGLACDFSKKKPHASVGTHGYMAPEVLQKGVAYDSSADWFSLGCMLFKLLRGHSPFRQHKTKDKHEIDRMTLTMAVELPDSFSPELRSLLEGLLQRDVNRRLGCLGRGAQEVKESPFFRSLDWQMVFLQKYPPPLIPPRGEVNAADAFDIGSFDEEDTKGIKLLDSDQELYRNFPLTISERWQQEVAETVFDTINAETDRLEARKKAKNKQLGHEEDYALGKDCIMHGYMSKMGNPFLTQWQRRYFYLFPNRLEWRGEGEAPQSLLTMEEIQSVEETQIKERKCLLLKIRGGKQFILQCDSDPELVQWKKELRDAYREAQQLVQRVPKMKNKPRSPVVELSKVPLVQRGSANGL

Molecular target: FLAG-tagged β2 adaptin (β2 subunit of adaptor protein complex 2) (UniProt P63010)
Test: co-IP; HEK-293 cells transfected with D2R and the FLAG-tagged bait, treated with vehicle or 10 μM DA (2 min; 2 and 5 min in Figure 8B); RIPA lysates, agarose beads with antibodies against FLAG 2–3 h at 4 °C; immunoblot of the co-precipitate

In the case of “4KR-GRK2, untagged (GRK2 mutant lacking the Mdm2-mediated ubiquitination sites) (from UniProt P25098) (enzyme)”, the binding is reported as “no binding”.

No constants are given. Whether binding was seen depends on the method and setting. Binding seen in cells or lysates may run through a third protein.
